Experimental data published in paper PMC9731518 (Biomedical chromatography : BMC, 2022).
Like-named read-outs stand apart in the source and are kept apart here.

How the values were obtained:
[1] = n=6
[2] = ref Yap, et al. 2020b, cited from earlier work
[3] = human plasma, n=4
[4] = in vitro; details: human
[5] = clinical; details: human, in vivo, po, 20 mg
[6] = DMSO, n=4

In the case of `C[C@@H]1COCCN1c1cc(-c2ccnn2C)c2ccnc(-c3ccn[nH]3)c2n1` [elimusertib, Elimusertib], the “Stability (%)” value ([1]; 72 h extract reinjection vs fresh calibrators, 40 ng/mL (QCL)) is reported as 93.6%, the “Stability (%)” value ([1]; 72 h extract reinjection vs fresh calibrators, 200 ng/mL (QCM)) is reported as 91.4% and the “Stability (%)” value ([1]; 72 h extract reinjection vs fresh calibrators, 4000 ng/mL (QCH)) is reported as 92.3%. For the same compound, the “Stability (%)” value ([1]; 72 h extract reinjection vs reinjected calibrators, 40 ng/mL (QCL)) was 96.3%, the “Stability (%)” value ([1]; 72 h extract reinjection vs reinjected calibrators, 200 ng/mL (QCM)) was 103.3% and the “Stability (%)” value ([1]; 72 h extract reinjection vs reinjected calibrators, 4000 ng/mL (QCH)) was 102.4%. The “mean multiple-dose Cmax” value ([2]; 40 mg BID (MTD), n=2) was 1,840 ng/mL, the “multiple dose Cmax” value ([2]; 80 mg BID, highest investigated dose, n=1) was 3,255 ng/mL and the Cmax ([2]; elimusertib administered alone, same dose level (20 mg)) was 569 ng/mL. The “mean AUC0-12” value ([2]; same dose level (20 mg)) was 4,060 ng•h/mL, the “Stability (%)” value ([3]; 3 freeze-thaw cycles −80 °C, 40 ng/mL (QCL)) was 100.4% and the “Stability (%)” value ([3]; 3 freeze-thaw cycles −80 °C, 200 ng/mL (QCM)) was 101.1%. The “Stability (%)” value ([3]; 3 freeze-thaw cycles −80 °C, 4000 ng/mL (QCH)) was 100.1%, the “Stability (%)” value ([3]; 12 months at −80 °C, 40 ng/mL (QCL)) was 103.9% and the “Stability (%)” value ([3]; 12 months at −80 °C, 200 ng/mL (QCM)) was 100.6%. The “Stability (%)” value ([3]; 12 months at −80 °C, 4000 ng/mL (QCH)) was 92.9%, the “Stability (%)” value ([3]; 4 h ambient temp, 40 ng/mL (QCL)) was 105.2% and the “Stability (%)” value ([3]; 4 h ambient temp, 200 ng/mL (QCM)) was 102.0%. The “Stability (%)” value ([3]; 4 h ambient temp, 4000 ng/mL (QCH)) was 104.5%, the recovery at 12 months [4] was 92.9 to 104% and the AUC(0-inf) [5] was 4740 ng·h/mL. The half-life [5] was 7.4 h, the AUC(0-t) ([5]; AUC0-6.5, one patient, 20 mg PO, non-compartmental) was 2370 ng·h/mL and the Stock solution stability ([6]; 12 months at −80 °C) was 91.8%. For the same compound, the Stock solution stability ([6]; 6 h at RT) was 100.8%.
